Measurements reported in publication PMC4742157.
These are yes or no findings as the source states them, for the method shown. Some binding calls cover weakened binding; strength is not graded here. Where a sequence is shown, tags or fusion partners need not be part of it.

The chains behind the UniProt entries cited, without tags or fusion partners. Residues count along the entry.
UniProt Q9P126, residues 55-229: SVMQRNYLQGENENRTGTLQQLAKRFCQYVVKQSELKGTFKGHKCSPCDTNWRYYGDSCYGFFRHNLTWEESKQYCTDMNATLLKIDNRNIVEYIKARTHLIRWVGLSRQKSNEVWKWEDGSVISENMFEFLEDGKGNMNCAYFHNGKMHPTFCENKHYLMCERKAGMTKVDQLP

Target: T1, hPDPN-Fc (human) (UniProt Q86YL7)
T1 sequence: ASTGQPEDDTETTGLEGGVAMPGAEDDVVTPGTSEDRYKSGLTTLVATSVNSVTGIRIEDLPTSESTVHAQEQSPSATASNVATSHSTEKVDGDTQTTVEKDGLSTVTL
Assay: ELISA; inhibition assay: purified hPDPN-Fc immobilised at 1 μg/ml on Maxisorp plates; after blocking, LpMab-7 or NZ-1 added at 1 μg/ml for 30 min; then biotinylated CLEC-2-Fc (1 μg/ml) and peroxidase-conjugated streptavidin; OD at 655 nm; both purified

binding: binds
Substance: CLEC-2-Fc (from UniProt Q9P126 55-229) (Fc fusion)
